# About 5,500 (1.4%) of roughly 400,000 compounds were called active. Inconclusive results, whose numbers are uncertain, are shown with a selection of clear calls. Calls follow the shape of the dose curve; as a rule, active = well fitted cell-killing curve with a large enough effect; inconclusive = small, poorly fitted or top-dose-only effect, or effect the other way; inactive = flat fitted curve, though single readings scatter. Potencies of inconclusive entries are doubtful fits and often do not repeat.
# Assay: qHTS assay for MDR1-selective chemotherapeutics: Primary screen using the parental adenocarcinoma cell KB-3-1; also: nearly all actives have a fitted effect of over 60% in size
# Details: KB-3-1 viability, CellTiter-Glo ATP luminescence, 72 h; activity change, negative = cytotoxic: at 46.1 µM (top of the series)
# Summary of the method: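 KB-3-1 cells, DMEM (no phenol red) + 10% FBS; compound by pin transfer, 72 h, 37 °C. Readout: CellTiter-Glo luminescence after 10 min. Data normalized, curve-fitted.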
# % is scaled to controls: 0 for no effect and ±100 for the full control effect; potency is read from the fitted curve at half-maximal effect.
Compound,Potency,"activity change, negative = cytotoxic"
C/C(=N\NC(=O)c1ccccc1O)c1cccs1,"inconclusive: 23.1 µM [cytotoxic, partial curve, poor fit]",–
Cc1cc2oc(=O)cc(CNc3ccccc3F)c2cc1O,"inconclusive: 23.1 µM [cytotoxic, single point]",–
Cc1cc(Cl)cc(Br)c1OCCCCn1cncn1,"inconclusive: 3.26 µM [cytotoxic, partial curve, poor fit]",–
CC(=O)N1CCCc2cc(S(=O)(=O)Nc3ccc(Cl)cc3F)ccc21,"inconclusive: 29.1 µM [cytotoxic, single point]",–
Cc1ccc2c(c1)[C@H]1[C@H](CO2)[C@H](c2ccccc2)[C@]2(C)C(=O)Nc3cc(F)ccc3C(=O)N12,"inconclusive: 29.1 µM [cytotoxic, single point]",–
Cc1ccccc1S(=O)(=O)NC(=O)C1(C)CCN1C(=O)CCc1ccc(Cl)cc1Cl (stereo not drawn),inactive,–
CN(C)c1cccc(C(=O)OCc2cc(=O)oc3cc(O)ccc23)c1,"inconclusive: 29.1 µM [cytotoxic, single point]",–
CCN(CC)c1nc(Nc2ccc(Cl)cc2)nc(OCC#N)n1,"inconclusive: 32.6 µM [cytotoxic, single point]",–
Cc1cccc(C)c1NC(=O)c1c(C)nn(-c2ccccc2)c1Cl,inactive,–
CCCCOc1ccc(-c2c(C#N)c(N)nc(SCC(N)=O)c2C#N)cc1,"inconclusive: 20.6 µM [cytotoxic, single point]",–
O=C(NCCCN1CCN(c2cccc(Cl)c2)CC1)C1(S(=O)(=O)c2ccc(Cl)cc2)CC1,"inconclusive: 18.4 µM [cytotoxic, partial curve, poor fit]",–
COc1ccc(Nc2nnc(C)c3ccccc23)cc1C(N)=O,"inconclusive: 14.6 µM [rising, partial curve, poor fit]",–
CCCCN1CC[C@H]2C=CC[C@@H](C(=O)Nc3ccc(Cl)c(C(F)(F)F)c3)[C@H]2C1=O,"inconclusive: 29.1 µM [cytotoxic, single point]",–
COCCCNC(=O)c1ccc(Cn2c(=O)c3ccccc3n(Cc3cc(C)ccc3C)c2=O)cc1,"inconclusive: 29.1 µM [cytotoxic, single point]",–
CCNC(=S)N1N=C2c3ccccc3CCC2C1c1ccc(F)cc1 (stereo not drawn),"inconclusive: 18.4 µM [cytotoxic, single point]",–
CC1CCN(C(=O)c2ccc(S(=O)(=O)Cc3cc(F)ccc3F)c([N+](=O)[O-])c2)CC1,active: 23.1 µM,–
O=C(COCc1nc2ccccc2c(=O)[nH]1)NCC1CCCCC1,inactive,–
O=C(C1CCCN(S(=O)(=O)c2ccc(Br)s2)C1)N1CCCCCC1 (stereo not drawn),"inconclusive: 25.9 µM [cytotoxic, single point]",–
COc1ccccc1-c1ccc([C@@H]2C[C@H]3[C@H](CON3C)CN2C(=O)c2ccc(-c3ccccc3)cc2)cc1,inactive,–
Cc1ccc(-n2ncc3c2CCCC3NC(=O)CSc2ccccn2)cc1C (stereo not drawn),inactive,–
CC(C)(C)NC(=O)C(c1ccncc1)N(C(=O)Cn1nnc(-c2ccc(F)cc2)n1)c1cccc(F)c1 (stereo not drawn),inactive,–
Cc1nc2ccn(Cc3cccnc3)c(=O)c2cc1C(=O)NCc1ccc(Cl)cc1,"inconclusive: 29.1 µM [cytotoxic, single point]",–
Cc1ccc(C)c2[nH]c(=O)c(CN(CCN3CCCC3)C(=O)Nc3ccc(F)cc3)cc12,"inconclusive: 23.1 µM [cytotoxic, single point]",–

Compound,Potency,"activity change, negative = cytotoxic"
O=C(N/N=C/c1ccc[nH]1)c1cccnc1,"inconclusive: 29.1 µM [cytotoxic, single point]",–
O=C(CCN1CCCO1)N1CCCC(Nc2cccc(F)c2)C1 (stereo not drawn),"inconclusive: 16.4 µM [rising, partial curve, poor fit]",–
CCCCCc1c(-c2ccccc2F)ncn1CCc1ccccc1OC,"inconclusive: 20.6 µM [cytotoxic, single point]",–
Cc1ccc(-c2cc(C(F)(F)F)n3nc(C(=O)Nc4sc5c(c4C#N)CCC(C)C5)cc3n2)cc1 (stereo not drawn),"inconclusive: 23.1 µM [rising, partial curve, poor fit]",–
O=C(Cn1cc(S(=O)(=O)N2CCN(c3ccccc3F)CC2)c2ccccc2c1=O)Nc1cccc(C(F)(F)F)c1,inactive,–
CC(NS(=O)(=O)c1cccc(Cl)c1)C(=O)Nc1ccc(-c2nc3ccccc3s2)cc1 (stereo not drawn),"inconclusive: 20.6 µM [cytotoxic, partial curve]",–
COc1ccc(CCNC(=O)c2cccc(-n3cnnn3)c2)cc1,inactive,–
O=[N+]([O-])c1cc(C(F)(F)F)ccc1SCC(O)CO (stereo not drawn),–,inconclusive: -3.42%
O=C(NS(=O)(=O)c1ccc(NC(=O)C2CCCO2)cc1)c1ccccc1 (stereo not drawn),inactive,–
O=C1c2cc(F)ccc2OC2(CCNCC2)C12CC(c1ccccc1)=NO2 (stereo not drawn),"inconclusive: 32.6 µM [cytotoxic, single point]",–
CC(C)OC(=O)c1cc(C(=O)c2cc(Cl)ccc2O)coc1=N,inactive,–
COc1ccc(C(=O)c2ccc3oc(-c4ccc(OC)cc4)c(C#CCCO)c3c2)cc1,inactive,–
COc1ccc(-n2c3nc4ccccc4nc3c3c(=N)oc(C)nc32)cc1,–,inconclusive: 0.212%
Clc1ccc(-n2ncc3c(NCc4ccco4)ncnc32)cc1,active: 5.01 µM,–
C=CCNC(=O)COc1ccc(S(=O)(=O)NC2CCCCC2)cc1,inactive,–
CCOC(=O)c1c(C)[nH]c(C)c1C(=O)CSc1nc2ccccc2c(=O)n1-c1ccc(CC)cc1,active: 23.1 µM,–
C/C(=N\OCC(=O)Nn1c(C)nc2ccccc2c1=O)c1ccccc1,inactive,–
COc1ccc(Cc2nnc(N/N=C/c3ccc(O)cc3)[nH]c2=O)cc1OC,active: 0.58 µM,–
COc1ccc(N2CC(C(=O)Nc3cc(C(F)(F)F)ccc3N3CCCC3)CC2=O)c(OC)c1 (stereo not drawn),"inconclusive: 29.1 µM [cytotoxic, single point]",–
COCCC(=O)N1CCC(Oc2ccc(C(=O)N3CCCCC3COC)cc2)CC1 (stereo not drawn),inactive,–
CC(=O)NC(Cc1c[nH]c2ccccc12)C(=O)NCCc1ccccn1 (stereo not drawn),inactive,–
CCOC(=O)/C=C(\C)Sc1cc(=O)oc2ccccc12,"inconclusive: 25.9 µM [cytotoxic, single point]",–
Cc1cccc(NC(=O)c2cc([N+](=O)[O-])ccc2N2CCCCC2)n1,inactive,–

# Some of the entries so far, tab-delimited:
Compound	Potency	activity change, negative = cytotoxic
O=C(CCN1CCCO1)N1CCCC(Nc2cccc(F)c2)C1 (stereo not drawn)	inconclusive: 16.4 µM [rising, partial curve, poor fit]	–
CCCCCc1c(-c2ccccc2F)ncn1CCc1ccccc1OC	inconclusive: 20.6 µM [cytotoxic, single point]	–
Cc1ccc(-c2cc(C(F)(F)F)n3nc(C(=O)Nc4sc5c(c4C#N)CCC(C)C5)cc3n2)cc1 (stereo not drawn)	inconclusive: 23.1 µM [rising, partial curve, poor fit]	–
O=C(Cn1cc(S(=O)(=O)N2CCN(c3ccccc3F)CC2)c2ccccc2c1=O)Nc1cccc(C(F)(F)F)c1	inactive	–
CC(NS(=O)(=O)c1cccc(Cl)c1)C(=O)Nc1ccc(-c2nc3ccccc3s2)cc1 (stereo not drawn)	inconclusive: 20.6 µM [cytotoxic, partial curve]	–
COc1ccc(CCNC(=O)c2cccc(-n3cnnn3)c2)cc1	inactive	–
O=[N+]([O-])c1cc(C(F)(F)F)ccc1SCC(O)CO (stereo not drawn)	–	inconclusive: -3.42%
O=C(NS(=O)(=O)c1ccc(NC(=O)C2CCCO2)cc1)c1ccccc1 (stereo not drawn)	inactive	–
O=C1c2cc(F)ccc2OC2(CCNCC2)C12CC(c1ccccc1)=NO2 (stereo not drawn)	inconclusive: 32.6 µM [cytotoxic, single point]	–
CC(C)OC(=O)c1cc(C(=O)c2cc(Cl)ccc2O)coc1=N	inactive	–
COc1ccc(C(=O)c2ccc3oc(-c4ccc(OC)cc4)c(C#CCCO)c3c2)cc1	inactive	–
COc1ccc(-n2c3nc4ccccc4nc3c3c(=N)oc(C)nc32)cc1	–	inconclusive: 0.212%
Clc1ccc(-n2ncc3c(NCc4ccco4)ncnc32)cc1	active: 5.01 µM	–
C=CCNC(=O)COc1ccc(S(=O)(=O)NC2CCCCC2)cc1	inactive	–

# The list goes on.

Compound,Potency,"activity change, negative = cytotoxic"
Cc1ccc(C)c(N2CCN(C(=O)c3ccc(CS(=O)(=O)c4ccccc4C)o3)CC2)c1,"inconclusive: 29.1 µM [cytotoxic, single point]",–
C=C(C)COc1ccc(-c2n[nH]c(C)c2Oc2ccccc2OC)c(O)c1,"inconclusive: 25.9 µM [cytotoxic, single point]",–
O=[N+]([O-])c1cccc(-c2cc(-c3cc(Br)ccc3O)[nH]n2)c1,active: 20.6 µM,–
C#C[C@]1(O)CC[C@H]2[C@@H]3CCC4=C(CCC(=O)C4)[C@H]3CC[C@@]21C,"inconclusive: 18.4 µM [cytotoxic, single point]",–
O=C(NCC1CCN(Cc2cccc(F)c2)CC1)c1cc2ccc3cccnc3c2[nH]1,"inconclusive: 14.6 µM [cytotoxic, partial curve, poor fit]",–
CCOC(=O)c1c(NC(=O)CSc2cn(CCNC(=O)c3ccccc3OC)c3ccccc23)sc2c1CCCC2,"inconclusive: 29.1 µM [cytotoxic, single point]",–
COc1ccccc1/C=C\C(=O)NCC(=O)N/N=C/c1cccc(OC)c1O,"inconclusive: 13 µM [cytotoxic, partial curve]",–
Cc1ccc(CNC(=O)Cn2c(=O)cc(-c3ccccc3)c3c(C)nn(C)c32)cc1,inactive,–
COc1ccc(-n2ncc3c(N4CCN(Cc5ccccc5)CC4)ncnc32)cc1,"inconclusive: 18.4 µM [cytotoxic, partial curve, poor fit]",–
Cc1cc(Br)cn2c(Cc3cccc(Cl)c3)c(-c3ccco3)nc12,"inconclusive: 18.4 µM [cytotoxic, single point]",–
CCCCCCCCN1C(=O)[C@H](CC(=O)NCc2cccs2)C[C@@]2(C(=O)OC)CC(C)(C)CC=C12,"inconclusive: 29.1 µM [cytotoxic, single point]",–
CN1CCN(C(=O)CCN2C(=O)/C(=C/c3ccccc3Cl)SC2=S)CC1,"inconclusive: 29.1 µM [cytotoxic, single point]",–
CN(C)c1ccc(C(CNS(=O)(=O)c2ccc(F)c(F)c2)c2c[nH]c3ccccc23)cc1 (stereo not drawn),"inconclusive: 29.1 µM [cytotoxic, single point]",–
Cc1cc(Nc2ccccc2)n(-c2nc3ccccc3[nH]2)n1,"inconclusive: 29.1 µM [cytotoxic, single point]",–
CCOC(=O)C1=CC[C@@H](c2cc3cc(OC)ccc3n2C)N(S(=O)(=O)c2ccc(C)cc2)[C@H]1C(=O)OCC,inactive,–
C/C(=N\Nc1nc(N)cc(Cl)n1)c1cccc(N)c1,inactive,–
CCn1c(-c2cc(OC)c(OC)c(OC)c2)n[nH]c1=S,inactive,–
Cc1ccc2nc(-c3ccccc3)c(Cc3ccsc3)n2c1,"inconclusive: 16.4 µM [cytotoxic, single point]",–
CC(C)(C)CC(C)(C)NC(=O)c1ccccc1,"inconclusive: 9.2 µM [rising, partial curve]",–
Cc1ccc(-n2nc3ccc(NC(=O)C(C)C)cc3n2)cc1,"inconclusive: 32.6 µM [cytotoxic, single point]",–
Cc1ccn2c(=O)c(C(=O)NCCc3ccc(S(N)(=O)=O)cc3)c(O)nc2c1,inactive,–
O=C(Nc1ccc2oc(-c3ccncc3)nc2c1)c1c(F)c(F)c(F)c(F)c1F,inactive,–

# Reference: PubChem BioAssay AID1347075 (National Center for Advancing Translational Sciences (NCATS), 2019)
